Experimental data from publication PMC3365098.
Results are given in words; binding and its absence hold for the method and conditions named. Binding seen in cells or lysates may run through a third protein. Some binding calls cover weakened binding; strength is not graded here.

By UniProt entry, the sequences of proteins in these tests, tags left out.
UniProt Q8K4E0: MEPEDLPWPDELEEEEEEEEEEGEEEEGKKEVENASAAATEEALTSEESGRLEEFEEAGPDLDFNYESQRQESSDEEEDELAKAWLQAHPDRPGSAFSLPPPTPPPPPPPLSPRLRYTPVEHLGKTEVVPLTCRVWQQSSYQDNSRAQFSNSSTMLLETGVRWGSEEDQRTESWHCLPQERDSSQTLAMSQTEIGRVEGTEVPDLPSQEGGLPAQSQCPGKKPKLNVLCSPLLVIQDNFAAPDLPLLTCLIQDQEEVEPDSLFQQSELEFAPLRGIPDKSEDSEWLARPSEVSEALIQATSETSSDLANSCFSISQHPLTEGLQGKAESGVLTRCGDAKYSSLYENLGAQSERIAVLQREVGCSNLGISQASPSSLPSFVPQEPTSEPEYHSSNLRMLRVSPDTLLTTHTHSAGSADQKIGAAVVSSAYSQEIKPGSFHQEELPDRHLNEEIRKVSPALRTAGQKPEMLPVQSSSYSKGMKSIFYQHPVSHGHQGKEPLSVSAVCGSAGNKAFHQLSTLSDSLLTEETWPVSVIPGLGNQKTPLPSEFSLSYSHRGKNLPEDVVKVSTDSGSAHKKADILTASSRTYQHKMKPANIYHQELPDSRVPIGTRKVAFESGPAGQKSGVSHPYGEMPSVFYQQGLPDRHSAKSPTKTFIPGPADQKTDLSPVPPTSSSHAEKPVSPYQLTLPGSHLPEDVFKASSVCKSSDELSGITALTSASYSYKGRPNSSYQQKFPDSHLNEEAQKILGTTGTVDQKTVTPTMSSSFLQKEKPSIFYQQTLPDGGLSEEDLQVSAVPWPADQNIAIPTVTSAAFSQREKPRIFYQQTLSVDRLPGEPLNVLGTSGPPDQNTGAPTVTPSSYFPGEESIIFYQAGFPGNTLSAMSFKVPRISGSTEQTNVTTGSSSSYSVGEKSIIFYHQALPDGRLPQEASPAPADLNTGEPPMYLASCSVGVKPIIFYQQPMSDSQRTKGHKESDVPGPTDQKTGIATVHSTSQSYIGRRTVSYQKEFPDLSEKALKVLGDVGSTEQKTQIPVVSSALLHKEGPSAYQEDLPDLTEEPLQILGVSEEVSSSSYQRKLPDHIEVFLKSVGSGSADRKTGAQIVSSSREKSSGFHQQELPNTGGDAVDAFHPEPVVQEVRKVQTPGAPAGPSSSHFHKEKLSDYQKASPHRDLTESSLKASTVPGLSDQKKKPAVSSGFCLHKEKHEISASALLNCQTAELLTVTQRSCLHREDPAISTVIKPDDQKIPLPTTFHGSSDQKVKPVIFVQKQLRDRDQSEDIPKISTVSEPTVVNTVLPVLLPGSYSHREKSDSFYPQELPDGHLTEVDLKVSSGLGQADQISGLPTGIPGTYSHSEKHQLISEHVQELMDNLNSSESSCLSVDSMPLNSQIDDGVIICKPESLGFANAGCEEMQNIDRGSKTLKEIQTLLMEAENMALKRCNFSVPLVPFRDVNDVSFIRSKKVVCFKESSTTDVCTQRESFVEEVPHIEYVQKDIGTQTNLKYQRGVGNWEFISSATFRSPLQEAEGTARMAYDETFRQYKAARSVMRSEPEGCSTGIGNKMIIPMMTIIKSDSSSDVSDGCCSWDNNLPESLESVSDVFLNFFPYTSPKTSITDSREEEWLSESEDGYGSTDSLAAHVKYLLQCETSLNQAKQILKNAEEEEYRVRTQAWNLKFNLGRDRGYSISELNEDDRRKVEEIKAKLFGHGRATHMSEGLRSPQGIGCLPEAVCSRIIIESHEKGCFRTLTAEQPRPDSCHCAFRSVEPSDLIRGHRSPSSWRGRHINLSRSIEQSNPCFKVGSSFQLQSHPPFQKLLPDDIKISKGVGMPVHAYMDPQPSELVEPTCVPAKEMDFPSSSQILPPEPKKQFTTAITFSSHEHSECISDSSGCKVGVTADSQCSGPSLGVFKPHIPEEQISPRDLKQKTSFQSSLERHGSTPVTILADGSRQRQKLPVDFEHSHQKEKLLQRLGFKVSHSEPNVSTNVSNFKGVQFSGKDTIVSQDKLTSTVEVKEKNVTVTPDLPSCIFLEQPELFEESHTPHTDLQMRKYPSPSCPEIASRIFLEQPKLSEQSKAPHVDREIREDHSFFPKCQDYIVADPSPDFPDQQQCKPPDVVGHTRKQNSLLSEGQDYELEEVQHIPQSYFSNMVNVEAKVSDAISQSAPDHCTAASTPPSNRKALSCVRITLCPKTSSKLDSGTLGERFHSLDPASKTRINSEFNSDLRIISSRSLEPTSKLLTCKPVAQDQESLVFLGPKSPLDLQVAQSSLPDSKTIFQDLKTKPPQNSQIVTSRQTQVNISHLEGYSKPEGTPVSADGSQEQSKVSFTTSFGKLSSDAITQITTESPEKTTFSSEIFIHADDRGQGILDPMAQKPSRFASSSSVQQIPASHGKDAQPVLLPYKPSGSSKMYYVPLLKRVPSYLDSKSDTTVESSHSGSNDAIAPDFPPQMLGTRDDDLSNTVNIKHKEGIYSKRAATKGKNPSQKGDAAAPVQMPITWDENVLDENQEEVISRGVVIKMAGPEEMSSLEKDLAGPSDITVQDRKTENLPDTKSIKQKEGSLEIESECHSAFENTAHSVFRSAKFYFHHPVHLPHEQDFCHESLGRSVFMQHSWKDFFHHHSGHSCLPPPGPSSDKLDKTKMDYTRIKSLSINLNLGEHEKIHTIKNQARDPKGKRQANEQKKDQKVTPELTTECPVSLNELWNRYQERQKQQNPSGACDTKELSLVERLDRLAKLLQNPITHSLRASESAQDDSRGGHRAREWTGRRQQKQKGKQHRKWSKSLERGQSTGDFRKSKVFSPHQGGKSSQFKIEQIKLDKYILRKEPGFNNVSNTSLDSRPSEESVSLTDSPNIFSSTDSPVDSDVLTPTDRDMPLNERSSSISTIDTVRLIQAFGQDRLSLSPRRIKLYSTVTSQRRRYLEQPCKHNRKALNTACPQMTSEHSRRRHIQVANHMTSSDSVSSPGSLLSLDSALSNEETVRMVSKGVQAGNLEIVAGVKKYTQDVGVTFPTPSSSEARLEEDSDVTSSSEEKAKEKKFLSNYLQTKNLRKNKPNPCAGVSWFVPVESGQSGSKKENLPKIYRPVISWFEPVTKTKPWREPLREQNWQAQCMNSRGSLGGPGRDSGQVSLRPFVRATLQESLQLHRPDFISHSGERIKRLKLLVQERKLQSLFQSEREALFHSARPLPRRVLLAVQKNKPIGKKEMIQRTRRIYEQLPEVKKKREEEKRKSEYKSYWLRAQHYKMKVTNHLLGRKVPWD
UniProt P57780: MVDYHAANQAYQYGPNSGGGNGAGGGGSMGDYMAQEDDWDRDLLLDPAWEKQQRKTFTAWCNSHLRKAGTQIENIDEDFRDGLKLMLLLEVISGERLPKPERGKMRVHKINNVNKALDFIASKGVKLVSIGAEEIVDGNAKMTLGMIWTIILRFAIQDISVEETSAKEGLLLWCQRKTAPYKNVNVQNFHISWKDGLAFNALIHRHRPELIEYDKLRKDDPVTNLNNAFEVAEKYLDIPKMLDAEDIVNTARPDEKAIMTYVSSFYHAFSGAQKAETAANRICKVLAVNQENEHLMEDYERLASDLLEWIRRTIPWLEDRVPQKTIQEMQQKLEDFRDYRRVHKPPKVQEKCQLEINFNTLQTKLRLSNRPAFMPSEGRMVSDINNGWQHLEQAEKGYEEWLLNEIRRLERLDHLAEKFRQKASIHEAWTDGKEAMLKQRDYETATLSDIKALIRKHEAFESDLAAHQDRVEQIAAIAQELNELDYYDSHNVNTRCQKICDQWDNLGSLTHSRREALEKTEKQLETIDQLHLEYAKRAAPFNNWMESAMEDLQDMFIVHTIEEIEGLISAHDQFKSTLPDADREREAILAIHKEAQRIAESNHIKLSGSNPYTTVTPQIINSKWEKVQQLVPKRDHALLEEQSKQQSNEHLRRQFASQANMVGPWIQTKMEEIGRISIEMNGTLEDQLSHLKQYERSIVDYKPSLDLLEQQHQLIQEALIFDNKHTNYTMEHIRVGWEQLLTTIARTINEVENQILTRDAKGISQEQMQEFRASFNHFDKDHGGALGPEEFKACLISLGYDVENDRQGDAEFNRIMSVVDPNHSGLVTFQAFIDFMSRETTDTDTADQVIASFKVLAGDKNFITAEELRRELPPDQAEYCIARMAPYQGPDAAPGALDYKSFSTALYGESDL

Biological target: ALMS1, endogenous in mouse kidney (mouse (endogenous in C57BL/6Ei kidney)) (UniProt Q8K4E0)
Test: co-IP; C57BL/6Ei mouse kidney lysate (500 µg) incubated overnight at 4°C with C-terminal ALMS1 antibody or IgG, Protein A sepharose, blot with anti-ACTN4

α-actinin 4, endogenous in mouse kidney (from UniProt P57780 1-912)
binding: binds
